This note sets out measurements from article PMC6966473.

Assay [1] deals with T1, RASSF10, overexpressed (tag not stated) (human) (UniProt A6NK89).
T1 sequence: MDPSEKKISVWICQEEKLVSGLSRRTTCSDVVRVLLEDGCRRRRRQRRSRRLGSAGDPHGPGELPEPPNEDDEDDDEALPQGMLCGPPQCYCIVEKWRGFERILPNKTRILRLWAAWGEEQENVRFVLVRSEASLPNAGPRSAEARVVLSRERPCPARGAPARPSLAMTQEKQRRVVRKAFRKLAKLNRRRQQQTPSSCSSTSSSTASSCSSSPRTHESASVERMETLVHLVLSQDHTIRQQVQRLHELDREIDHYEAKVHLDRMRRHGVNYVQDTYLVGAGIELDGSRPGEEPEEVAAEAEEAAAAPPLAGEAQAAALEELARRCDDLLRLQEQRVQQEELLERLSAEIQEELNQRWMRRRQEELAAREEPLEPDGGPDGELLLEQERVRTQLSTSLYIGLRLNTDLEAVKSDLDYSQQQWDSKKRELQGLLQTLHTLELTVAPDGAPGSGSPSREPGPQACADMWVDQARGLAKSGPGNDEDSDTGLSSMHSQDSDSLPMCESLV
In words: pull-down; RASSF10 overexpressed in HEK cells and pulled down (GFP-Trap or Glutathione-Sepharose; which in which panel not told); overexpressed (Figure 4b) or endogenous (Figure 4c) ASPP1/2 detected by Western blot.

In a further assay the target is T2, RASSF10-EYFP (human) (UniProt A6NK89).
T2 sequence: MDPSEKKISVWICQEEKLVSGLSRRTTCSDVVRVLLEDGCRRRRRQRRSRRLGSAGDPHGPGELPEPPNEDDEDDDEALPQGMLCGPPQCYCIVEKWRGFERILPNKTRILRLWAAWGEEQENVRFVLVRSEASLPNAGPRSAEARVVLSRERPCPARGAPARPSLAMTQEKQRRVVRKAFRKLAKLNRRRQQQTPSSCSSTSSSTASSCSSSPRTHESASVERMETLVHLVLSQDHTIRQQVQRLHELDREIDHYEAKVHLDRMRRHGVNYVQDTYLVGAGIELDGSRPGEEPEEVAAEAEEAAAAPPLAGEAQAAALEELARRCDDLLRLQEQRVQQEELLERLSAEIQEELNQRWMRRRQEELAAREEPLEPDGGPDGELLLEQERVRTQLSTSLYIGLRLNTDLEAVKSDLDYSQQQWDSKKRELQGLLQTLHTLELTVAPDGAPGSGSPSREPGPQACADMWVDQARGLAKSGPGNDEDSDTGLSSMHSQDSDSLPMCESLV
In words: co-IP; wt-RASSF10 held on GFP-Trap, ASPP1/2 co-precipitated, RASSF10D237-362 as competitor (Figure S3c).

A further assay concerns the target T3, RASSF10D1-133 (human) (UniProt A6NK89).
T3 sequence: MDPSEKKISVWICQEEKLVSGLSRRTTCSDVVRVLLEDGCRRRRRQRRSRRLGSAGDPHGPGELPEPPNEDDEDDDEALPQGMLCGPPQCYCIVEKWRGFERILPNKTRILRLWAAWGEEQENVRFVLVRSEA
Nature of the assay: co-IP; co-precipitation of ASPP1/2 with RASSF10 or RASSF10 domain mutants (Figure S3a); tags and cells not given.

Assay [2] has as its target T1, RASSF10, overexpressed (tag not stated) (human). In words: co-IP; co-precipitation of ASPP2 with RASSF10 or its domain mutants, with RASSF10 mutants or wt-RASSF10 as overexpressed competitors (Figure S3b).
The target of the next assay is T4, RASSF10D237-362 (human) (UniProt A6NK89).
T4 sequence: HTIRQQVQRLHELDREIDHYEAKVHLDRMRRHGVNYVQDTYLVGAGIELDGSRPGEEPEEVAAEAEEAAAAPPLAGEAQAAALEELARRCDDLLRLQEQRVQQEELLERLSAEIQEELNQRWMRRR
The description is as above.

Results are given in words; binding and its absence hold for the method and conditions named. Binding seen in cells or lysates may run through a third protein. Some entries that bind do so weakly or less than the wild type. For some assays here: Where a sequence is shown, tags or fusion partners need not be part of it.

B1: endogenous ASPP1 (HEK) (protein, UniProt Q96KQ4 1-1090)
chain: MMPMILTVFLSNNEQILTEVPITPETTCRDVVEFCKEPGEGSCHLAEVWRGNERPIPFDHMMYEHLQKWGPRREEVKFFLRHEDSPTENSEQGGRQTQEQRTQRNVINVPGEKRTENGVGNPRVELTLSELQDMAARQQQQIENQQQMLVAKEQRLHFLKQQERRQQQSISENEKLQKLKERVEAQENKLKKIRAMRGQVDYSKIMNGNLSAEIERFSAMFQEKKQEVQTAILRVDQLSQQLEDLKKGKLNGFQSYNGKLTGPAAVELKRLYQELQIRNQLNQEQNSKLQQQKELLNKRNMEVAMMDKRISELRERLYGKKIQLNRVNGTSSPQSPLSTSGRVAAVGPYIQVPSAGSFPVLGDPIKPQSLSIASNAAHGRSKSANDGNWPTLKQNSSSSVKPVQVAGADWKDPSVEGSVKQGTVSSQPVPFSALGPTEKPGIEIGKVPPPIPGVGKQLPPSYGTYPSPTPLGPGSTSSLERRKEGSLPRPSAGLPSRQRPTLLPATGSTPQPGSSQQIQQRISVPPSPTYPPAGPPAFPAGDSKPELPLTVAIRPFLADKGSRPQSPRKGPQTVNSSSIYSMYLQQATPPKNYQPAAHSALNKSVKAVYGKPVLPSGSTSPSPLPFLHGSLSTGTPQPQPPSESTEKEPEQDGPAAPADGSTVESLPRPLSPTKLTPIVHSPLRYQSDADLEALRRKLANAPRPLKKRSSITEPEGPGGPNIQKLLYQRFNTLAGGMEGTPFYQPSPSQDFMGTLADVDNGNTNANGNLEELPPAQPTAPLPAEPAPSSDANDNELPSPEPEELICPQTTHQTAEPAEDNNNNVATVPTTEQIPSPVAEAPSPGEEQVPPAPLPPASHPPATSTNKRTNLKKPNSERTGHGLRVRFNPLALLLDASLEGEFDLVQRIIYEVEDPSKPNDEGITPLHNAVCAGHHHIVKFLLDFGVNVNAADSDGWTPLHCAASCNSVHLCKQLVESGAAIFASTISDIETAADKCEEMEEGYIQCSQFLYGVQEKLGVMNKGVAYALWDYEAQNSDELSFHEGDALTILRRKDESETEWWWARLGDREGYVPKNLLGLYPRIKPRQRTLA
In the case of B1, the binding entry in assay [1] is reported as “binds”.

B2: ASPP2 (experiments of Figure S3) (protein, UniProt Q13625 1-1128)
chain: MMPMFLTVYLSNNEQHFTEVPVTPETICRDVVDLCKEPGESDCHLAEVWCGSERPVADNERMFDVLQRFGSQRNEVRFFLRHERPPGRDIVSGPRSQDPSLKRNGVKVPGEYRRKENGVNSPRMDLTLAELQEMASRQQQQIEAQQQLLATKEQRLKFLKQQDQRQQQQVAEQEKLKRLKEIAENQEAKLKKVRALKGHVEQKRLSNGKLVEEIEQMNNLFQQKQRELVLAVSKVEELTRQLEMLKNGRIDSHHDNQSAVAELDRLYKELQLRNKLNQEQNAKLQQQRECLNKRNSEVAVMDKRVNELRDRLWKKKAALQQKENLPVSSDGNLPQQAASAPSRVAAVGPYIQSSTMPRMPSRPELLVKPALPDGSLVIQASEGPMKIQTLPNMRSGAASQTKGSKIHPVGPDWSPSNADLFPSQGSASVPQSTGNALDQVDDGEVPLREKEKKVRPFSMFDAVDQSNAPPSFGTLRKNQSSEDILRDAQVANKNVAKVPPPVPTKPKQINLPYFGQTNQPPSDIKPDGSSQQLSTVVPSMGTKPKPAGQQPRVLLSPSIPSVGQDQTLSPGSKQESPPAAAVRPFTPQPSKDTLLPPFRKPQTVAASSIYSMYTQQQAPGKNFQQAVQSALTKTHTRGPHFSSVYGKPVIAAAQNQQQHPENIYSNSQGKPGSPEPETEPVSSVQENHENERIPRPLSPTKLLPFLSNPYRNQSDADLEALRKKLSNAPRPLKKRSSITEPEGPNGPNIQKLLYQRTTIAAMETISVPSYPSKSASVTASSESPVEIQNPYLHVEPEKEVVSLVPESLSPEDVGNASTENSDMPAPSPGLDYEPEGVPDNSPNLQNNPEEPNPEAPHVLDVYLEEYPPYPPPPYPSGEPEGPGEDSVSMRPPEITGQVSLPPGKRTNLRKTGSERIAHGMRVKFNPLALLLDSSLEGEFDLVQRIIYEVDDPSLPNDEGITALHNAVCAGHTEIVKFLVQFGVNVNAADSDGWTPLHCAASCNNVQVCKFLVESGAAVFAMTYSDMQTAADKCEEMEEGYTQCSQFLYGVQEKMGIMNKGVIYALWDYEPQNDDELPMKEGDCMTIIHREDEDEIEWWWARLNDKEGYVPRNLLGLYPRIKPRQRSLA
As to B2, the binding entry with RASSF10-EYFP (human) was “binds”; with RASSF10D1-133 (human), “binds weakly”; in assay [2] it was “binds”; with RASSF10D237-362 (human), “binds”.
